## Results of single-concentration screens

Amino acid sequences for entries named in this document (tags omitted). Residues count along the entry.
UniProt P9WNZ1, whole entry: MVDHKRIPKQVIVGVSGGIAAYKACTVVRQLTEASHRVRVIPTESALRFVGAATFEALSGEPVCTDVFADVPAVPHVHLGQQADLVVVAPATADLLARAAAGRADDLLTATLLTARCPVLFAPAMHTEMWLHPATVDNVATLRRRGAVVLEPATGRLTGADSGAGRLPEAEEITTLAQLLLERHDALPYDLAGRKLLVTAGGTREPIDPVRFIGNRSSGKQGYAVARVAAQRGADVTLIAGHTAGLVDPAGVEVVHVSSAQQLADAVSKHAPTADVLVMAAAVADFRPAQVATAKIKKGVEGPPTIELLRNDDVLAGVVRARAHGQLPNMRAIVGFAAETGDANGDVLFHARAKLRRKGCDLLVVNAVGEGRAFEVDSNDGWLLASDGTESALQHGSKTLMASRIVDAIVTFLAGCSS
UniProt P9WFT3, whole entry: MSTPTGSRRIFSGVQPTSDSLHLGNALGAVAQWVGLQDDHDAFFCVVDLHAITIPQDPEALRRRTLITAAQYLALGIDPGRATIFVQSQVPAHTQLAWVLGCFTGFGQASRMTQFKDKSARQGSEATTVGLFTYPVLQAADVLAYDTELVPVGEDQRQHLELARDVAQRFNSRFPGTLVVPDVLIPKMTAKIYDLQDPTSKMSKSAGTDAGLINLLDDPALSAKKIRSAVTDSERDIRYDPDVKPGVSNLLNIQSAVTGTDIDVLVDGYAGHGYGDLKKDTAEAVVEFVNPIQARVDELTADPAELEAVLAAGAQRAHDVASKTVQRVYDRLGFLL
UniProt Q4DA54, 1-478: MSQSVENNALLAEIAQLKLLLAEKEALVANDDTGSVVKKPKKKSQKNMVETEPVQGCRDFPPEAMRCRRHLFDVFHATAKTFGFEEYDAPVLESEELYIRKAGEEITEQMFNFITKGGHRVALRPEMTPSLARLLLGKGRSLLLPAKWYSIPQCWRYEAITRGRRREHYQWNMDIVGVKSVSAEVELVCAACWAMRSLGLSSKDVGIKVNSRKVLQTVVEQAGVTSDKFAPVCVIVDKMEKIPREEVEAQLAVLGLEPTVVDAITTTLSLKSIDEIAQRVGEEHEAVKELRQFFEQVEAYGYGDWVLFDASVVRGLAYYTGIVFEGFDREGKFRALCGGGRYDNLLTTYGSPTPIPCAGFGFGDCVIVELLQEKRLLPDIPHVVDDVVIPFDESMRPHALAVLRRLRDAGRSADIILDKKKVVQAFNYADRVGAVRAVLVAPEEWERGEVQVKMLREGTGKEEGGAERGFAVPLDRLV
UniProt Q8IDJ8, 1-583: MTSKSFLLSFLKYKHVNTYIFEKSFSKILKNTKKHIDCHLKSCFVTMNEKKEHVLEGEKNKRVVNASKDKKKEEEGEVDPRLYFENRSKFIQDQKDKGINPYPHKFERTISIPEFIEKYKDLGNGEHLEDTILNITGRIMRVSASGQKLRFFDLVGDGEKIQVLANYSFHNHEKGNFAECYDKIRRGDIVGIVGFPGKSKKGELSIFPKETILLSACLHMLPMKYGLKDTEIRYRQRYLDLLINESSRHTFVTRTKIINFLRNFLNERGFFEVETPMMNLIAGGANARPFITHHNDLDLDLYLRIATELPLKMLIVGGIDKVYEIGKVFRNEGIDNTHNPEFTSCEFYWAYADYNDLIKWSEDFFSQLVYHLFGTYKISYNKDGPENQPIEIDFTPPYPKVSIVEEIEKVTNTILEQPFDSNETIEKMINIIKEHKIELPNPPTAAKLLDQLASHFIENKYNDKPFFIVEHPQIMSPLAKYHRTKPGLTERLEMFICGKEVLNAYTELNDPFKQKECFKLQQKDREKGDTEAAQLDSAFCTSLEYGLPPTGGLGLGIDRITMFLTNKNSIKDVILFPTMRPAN

A: 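Enzyme assay of CoaBC with a phosphate dye (Biomol Green) read at 650 nm. Target: Coenzyme A biosynthesis protein CoaBC, Mycobacterium tuberculosis (UniProt P9WNZ1). Concentration: 30 µM. Higher reads as stronger inhibition, judged from the few compounds that gave an IC50. Most strong results did not repeat in a second test. Size under these conditions: about 67,000 compounds, about 40 of them at 50% or above in at least one test.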
B: 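Tryptophan-tRNA ligase, Mycobacterium tuberculosis (UniProt P9WFT3). Enzyme assay of tryptophanyl-tRNA synthetase; the read-out is not stated. Tested at 10 µM. Higher most likely means stronger inhibition; the record gives no direction and few retests gave an IC50. About 65,000 compounds were tested under these conditions; 0.098% (about 64) showed 50% or more at least once.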
C: 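Histidine-tRNA ligase, Trypanosoma cruzi CL Brener (UniProt Q4DA54). Enzyme assay of histidyl-tRNA synthetase; the read-out is not stated. Compounds at 30 µM. The record gives no direction; compounds that gave an IC50 in retests scored well above the rest, so higher reads as stronger inhibition. Size under these conditions: about 69,000 compounds, about 31 of them at 50% or above in at least one test.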
D: 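Enzyme assay of the cytosolic lysyl-tRNA synthetase in 384-well plates, read by luminescence. Target: Lysine-tRNA ligase, Plasmodium falciparum 3D7 (UniProt Q8IDJ8). Concentration: 30 µM. Higher reads as stronger inhibition, judged from the few compounds that gave an IC50. Of about 69,000 compounds tested this way, about 49 (0.071%) reached 50% or more in at least one test.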

The filed quantity is “Percent Effect” (%).
The controls that fix the scale are not given in the record; negative values are as filed.
This is an unselected part of the compounds tested.

With CCC(C)(COc1ncccc1Cl)NCC(=O)NCC(C)C (configuration not stated) the screen gave A: 2.152%; B: 2.991%; C: 7.317%; D: 0.6001%.
With CCOc1ccc([C@@H]2N[C@H](c3nccs3)Cc3ccsc32)cc1OC the screen gave A: 3.206%; B: -1.319%; C: 6.061%; D: 5.024%.
With NC(=O)c1ccc(CN2CCCC(N3CCCC3)C2)cc1 (configuration not stated) the screen gave A: 2.277%; B: 6.754%; C: 4.813%; D: 1.867%.
With COc1cccc2c1OCC(C(=O)N1CCC(NS(C)(=O)=O)CC1)C2 (configuration not stated) the screen gave A: 3.257%; B: 5.87%; C: 0.5025%; D: 1.066%.
With CCN1CC(=O)c2sc(NC(C)C)nc2C1 the screen gave A: 3.976%; C: 14.69%; D: 3.538%.
With Cc1cnn(CC2CCCN2C(=O)c2cc3c(F)cccc3[nH]2)c1 (configuration not stated) the screen gave A: -0.7905%; B: 5.503%; C: 3.422%; D: 4.552%.
With COc1ccc2c(C)nc(N3C[C@@H](C)O[C@@H](C)C3)nc2c1 the screen gave A: -0.3654%; B: -0.4295%; C: 5.357%; D: 2.595%.
With Cc1ccc(O)c(CN2CCc3nc(-c4cccnc4)nc(O)c3C2)c1 the screen gave A: -0.7353%; C: 1.064%; D: 4.499%.
With Cc1noc(C2CCCN(CC(=O)N3CCc4ccccc4C3)C2)n1 (configuration not stated) the screen gave A: 0.369%; B: 0.3549%; C: 13.79%; D: 3.283%.
With CC(C)c1cc(CN(C)C(=O)CN2CCCCC2=O)no1 the screen gave A: -1.928%; B: -1.877%; C: 0.9901%; D: -2.517%.
With COCCN1CCC(c2nc3ccccc3[nH]2)CC1 the screen gave A: -0.6036%; B: -8.287%; C: 5.056%; D: 7.193%.
With CCN1C(=O)C2(CCOCC2)c2cc(NC(=O)c3csnn3)ccc21 the screen gave A: -2.447%; B: 0.7229%; C: 8.911%; D: 6.241%.
With Cc1cnc(C(=O)N2CCC3(CC2)CC(c2ccccc2)C(=O)N3)cn1 (configuration not stated) the screen gave A: -19.22%; B: 2.604%; C: -50%; D: 0.4823%.
With O=C(CN1CCCC(c2noc(C3CC3)n2)C1)N1CCCC1 (configuration not stated) the screen gave A: -0.4878%; B: -1.65%; C: 3.922%; D: 4.455%.
With CCS(=O)(=O)N1C[C@@H]2CN(Cc3cccs3)CCO[C@@H]2C1 the screen gave B: 8.043%; C: 0%; D: 0.8298%.
With Cc1ccc(OCCSC2=NCCN2)cc1 the screen gave A: -2.675%; B: -7.545%; C: 3.665%; D: 3.87%.
With O=C(c1ccccn1)N1C[C@@H]2CC[C@H](C1)N(C(=O)c1ccsc1)C2 the screen gave A: 1.568%; B: 1.377%; C: -1.508%; D: 1.802%.
With Cc1nccn1CCCC(=O)N1CCN(c2cccnc2)CC1 the screen gave A: 1.733%; B: 3.942%; C: 3.614%; D: 1.042%.

Repeated from the top, 2 entries:

SMILES,A,B,C,D
CCC(C)(COc1ncccc1Cl)NCC(=O)NCC(C)C (configuration not stated),2.152%,2.991%,7.317%,0.6001%
CCOc1ccc([C@@H]2N[C@H](c3nccs3)Cc3ccsc32)cc1OC,3.206%,-1.319%,6.061%,5.024%

Data taken from ChEMBL document CHEMBL3988442, “University of Dundee, Small-Polar-MMV Screening Library” (2021).